For assay [1], the target named is T1, NH1 (split YFP fusion) (rice (Nipponbare)) (UniProt Q9FDY4).
T1 sequence: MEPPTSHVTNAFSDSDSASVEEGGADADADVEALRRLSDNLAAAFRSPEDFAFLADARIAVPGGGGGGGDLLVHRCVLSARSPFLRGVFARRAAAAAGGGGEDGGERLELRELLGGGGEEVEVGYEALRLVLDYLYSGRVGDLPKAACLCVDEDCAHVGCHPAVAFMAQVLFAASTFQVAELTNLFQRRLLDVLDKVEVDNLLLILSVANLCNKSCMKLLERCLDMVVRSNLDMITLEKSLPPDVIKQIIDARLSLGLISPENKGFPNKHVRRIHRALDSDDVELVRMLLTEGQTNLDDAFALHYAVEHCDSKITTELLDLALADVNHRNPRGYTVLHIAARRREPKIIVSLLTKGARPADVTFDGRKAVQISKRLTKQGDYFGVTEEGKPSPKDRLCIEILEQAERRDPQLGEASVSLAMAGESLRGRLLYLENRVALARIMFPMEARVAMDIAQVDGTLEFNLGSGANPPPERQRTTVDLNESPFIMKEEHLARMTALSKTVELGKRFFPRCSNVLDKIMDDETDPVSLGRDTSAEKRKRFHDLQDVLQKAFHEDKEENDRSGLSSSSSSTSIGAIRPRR
Description: split reporter; split YFP in rice protoplasts, 5 ug of each plasmid, 24-36 hr after transfection, fluorescence graded +++ to –; the YFPN fusion is written as binder, the YFPC fusion as target.

Protein sequences, listed by entry. Tags and fused reporters are not part of them. Lines headed by an entry give the natural chain unless they say otherwise; changes in a name come on top.
UniProt Q5ZEF1: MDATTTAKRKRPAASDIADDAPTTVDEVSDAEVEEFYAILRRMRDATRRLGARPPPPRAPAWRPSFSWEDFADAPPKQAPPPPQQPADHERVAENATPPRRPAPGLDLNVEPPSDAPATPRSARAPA
UniProt Q6L589: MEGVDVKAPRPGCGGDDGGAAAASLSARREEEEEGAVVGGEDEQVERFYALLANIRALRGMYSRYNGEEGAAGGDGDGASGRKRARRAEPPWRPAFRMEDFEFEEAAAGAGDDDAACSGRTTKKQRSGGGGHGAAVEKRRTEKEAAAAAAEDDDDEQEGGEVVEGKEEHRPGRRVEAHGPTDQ
UniProt B7F924: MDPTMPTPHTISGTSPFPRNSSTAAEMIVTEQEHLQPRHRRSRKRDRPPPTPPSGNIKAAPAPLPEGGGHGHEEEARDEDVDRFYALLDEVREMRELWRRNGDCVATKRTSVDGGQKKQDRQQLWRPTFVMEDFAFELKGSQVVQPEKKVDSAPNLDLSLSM

The target in assay [2] is T2, NH3 (split YFP fusion) (rice (Nipponbare)) (UniProt Q75HA6).
T2 sequence: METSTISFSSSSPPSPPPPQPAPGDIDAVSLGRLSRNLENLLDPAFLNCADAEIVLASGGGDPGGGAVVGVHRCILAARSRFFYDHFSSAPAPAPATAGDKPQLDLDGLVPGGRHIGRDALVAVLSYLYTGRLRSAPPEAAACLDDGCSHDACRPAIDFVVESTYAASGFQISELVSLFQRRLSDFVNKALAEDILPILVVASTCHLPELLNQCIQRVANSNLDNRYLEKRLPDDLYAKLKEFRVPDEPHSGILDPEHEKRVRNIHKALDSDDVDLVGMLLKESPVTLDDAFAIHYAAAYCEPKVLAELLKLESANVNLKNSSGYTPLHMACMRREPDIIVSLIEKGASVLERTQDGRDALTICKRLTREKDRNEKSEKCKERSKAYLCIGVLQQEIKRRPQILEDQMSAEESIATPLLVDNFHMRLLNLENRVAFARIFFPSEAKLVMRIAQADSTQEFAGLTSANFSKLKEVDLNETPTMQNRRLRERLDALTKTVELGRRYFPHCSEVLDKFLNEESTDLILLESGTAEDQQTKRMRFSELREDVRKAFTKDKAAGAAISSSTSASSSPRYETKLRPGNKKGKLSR
Described as above.

The next assay addresses T3, NH1 (rice (Nipponbare)) (UniProt Q9FDY4).
T3 sequence: T1 sequence
Description: two-hybrid; LexA fusion (written as target) and B42AD fusion (written as binder) in yeast EGY48; beta-galactosidase on X-gal medium, blue colour graded +++ to –; at least three colonies.

The target in a further assay is T4, NH2 (rice (Nipponbare)) (UniProt Q0JJ01).
T4 sequence: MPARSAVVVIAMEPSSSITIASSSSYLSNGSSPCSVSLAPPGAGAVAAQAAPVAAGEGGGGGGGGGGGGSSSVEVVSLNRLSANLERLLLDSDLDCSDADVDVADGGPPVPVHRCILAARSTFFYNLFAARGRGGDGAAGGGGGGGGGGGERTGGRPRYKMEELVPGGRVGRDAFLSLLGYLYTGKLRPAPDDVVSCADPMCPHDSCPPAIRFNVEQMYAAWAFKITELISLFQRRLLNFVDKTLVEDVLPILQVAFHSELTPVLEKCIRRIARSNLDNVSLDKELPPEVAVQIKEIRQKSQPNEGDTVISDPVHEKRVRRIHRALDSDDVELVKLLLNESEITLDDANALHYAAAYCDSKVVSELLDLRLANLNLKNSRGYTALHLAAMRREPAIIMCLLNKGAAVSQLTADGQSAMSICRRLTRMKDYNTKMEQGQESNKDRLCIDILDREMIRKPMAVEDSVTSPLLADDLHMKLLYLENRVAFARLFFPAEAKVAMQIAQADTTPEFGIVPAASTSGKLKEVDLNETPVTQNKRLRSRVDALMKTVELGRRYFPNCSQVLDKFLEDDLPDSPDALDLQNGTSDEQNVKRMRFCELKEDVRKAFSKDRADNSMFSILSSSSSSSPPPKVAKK
The description is as above.

In the next assay the target is T5, NH3 (rice (Nipponbare)) (UniProt Q75HA6).
T5 sequence: T2 sequence
The assay is described as above.

In assay [3] the target is T6, NH2 (split YFP fusion) (rice (Nipponbare)) (UniProt Q0JJ01).
T6 sequence: T4 sequence
Description: split reporter; split YFP in rice protoplasts, 5 ug of each plasmid, 24-36 hr after transfection, fluorescence graded +++ to –; the YFPN fusion is written as binder, the YFPC fusion as target.

These are yes or no findings as the source states them, for the method shown. For some assays here: Binding calls can cover weak binding; strength is not graded here. For some assays here: In cells and extracts the contact can be indirect. For some assays here: Where a sequence is shown, tags or fusion partners need not be part of it.

As for “NRR (split YFP fusion) (rice (Nipponbare))”, the binding entry in assay [1] and in assay [2] was “binds” throughout.
As to “Negative Regulator of Resistance (NRR) (from UniProt Q5ZEF1)”, the binding entry in the assay with NH1 (rice (Nipponbare)), in the assay with NH2 (rice (Nipponbare)) and in the assay with NH3 (rice (Nipponbare)) was “binds” in each case.
RH1 (from UniProt Q6L589): the binding entry in the assay with NH1 (rice (Nipponbare)), with NH2 (rice (Nipponbare)) and in the assay with NH3 (rice (Nipponbare)) was “binds” each time.
Turning to “RH1 (split YFP fusion) (rice (Nipponbare))”, the binding entry in assay [1] and in assay [2] was “binds” throughout.
Take “RH2 (split YFP fusion) (rice (Nipponbare))”: the binding entry in assay [1] and in assay [2] was “binds” throughout.
Take RH3 (from UniProt B7F924): the binding entry with NH1 (rice (Nipponbare)), with NH2 (rice (Nipponbare)) and with NH3 (rice (Nipponbare)) was “binds” throughout.
Take “RH3 (split YFP fusion) (rice (Nipponbare))”: the binding entry in assay [1] and in assay [2] was “binds” in each case.
Turning to TGAL1 (rice (Nipponbare)), the binding entry in the assay with NH1 (rice (Nipponbare)), with NH2 (rice (Nipponbare)) and with NH3 (rice (Nipponbare)) was “binds” in each case.
For “TGAL1 (split YFP fusion) (rice (Nipponbare))”, the binding result in assay [1] and in assay [2] was “binds” throughout.
Consider TGAL2 (rice (Nipponbare)), for which the binding entry with NH1 (rice (Nipponbare)), with NH2 (rice (Nipponbare)) and with NH3 (rice (Nipponbare)) was “binds” in each case.
As for “TGAL2 (split YFP fusion) (rice (Nipponbare))”, the binding entry in assay [1] and in assay [2] was “binds” each time.
In the case of TGAL4 (rice (Nipponbare)), the binding result with NH1 (rice (Nipponbare)), in the assay with NH2 (rice (Nipponbare)) and in the assay with NH3 (rice (Nipponbare)) was “binds” each time.
On to “TGAL4 (split YFP fusion) (rice (Nipponbare))”, for which the binding result in assay [1] was “binds”; in assay [3], “no binding”; in assay [2], “binds”.
As for “TGAL5 (split YFP fusion) (rice (Nipponbare))”, the binding entry was “binds” in assay [1], “no binding” in assay [3] and “binds” in assay [2].
Take TGAL6 (rice (Nipponbare)): the binding result in the assay with NH1 (rice (Nipponbare)) and with NH2 (rice (Nipponbare)) was “binds” throughout.
Take “TGAL6 (split YFP fusion) (rice (Nipponbare))”: the results for the binding result in assay [1], in assay [3] and in assay [2] were “binds”, “no binding” and “binds”, respectively.
As for “TGAL7 (split YFP fusion) (rice (Nipponbare))”, the binding result in assay [1] and in assay [2] was “binds” throughout.
“TGAL8 (split YFP fusion) (rice (Nipponbare))”: the binding result in assay [1] and in assay [2] was “binds” in each case.
In the case of TGAL9 (rice (Nipponbare)), the binding result in the assay with NH1 (rice (Nipponbare)), with NH2 (rice (Nipponbare)) and with NH3 (rice (Nipponbare)) was “no binding” each time.
Turning to “TGAL9 (split YFP fusion) (rice (Nipponbare))”, the binding entry is “binds” in assay [1] and “no binding” in assay [3].
As to TGAL11 (rice (Nipponbare)), the binding result with NH1 (rice (Nipponbare)), with NH2 (rice (Nipponbare)) and with NH3 (rice (Nipponbare)) was “binds” throughout.
On to “TGAL11 (split YFP fusion) (rice (Nipponbare))”, for which the binding result in assay [1] and in assay [2] was “binds” in each case.
In the case of rLG2 (rice (Nipponbare)), the binding result with NH1 (rice (Nipponbare)), with NH2 (rice (Nipponbare)) and with NH3 (rice (Nipponbare)) was “binds” each time.
Consider “rLG2 (split YFP fusion) (rice (Nipponbare))”, for which the binding result in assay [1] was “binds”; in assay [3], “no binding”; in assay [2], “binds”.
As to rTGA2.1 (rice (Nipponbare)), the binding result with NH1 (rice (Nipponbare)), with NH2 (rice (Nipponbare)) and with NH3 (rice (Nipponbare)) was “binds” in each case.
In the case of “rTGA2.1 (split YFP fusion) (rice (Nipponbare))”, the values for the binding result in assay [1], in assay [3] and in assay [2] were “binds”, “no binding” and “binds”, respectively.
For rTGA2.2 (rice (Nipponbare)), the binding entry with NH1 (rice (Nipponbare)), with NH2 (rice (Nipponbare)) and with NH3 (rice (Nipponbare)) was “binds” in each case.
Take “rTGA2.2 (split YFP fusion) (rice (Nipponbare))”: the binding result in assay [1] and in assay [2] was “binds” each time.
With rTGA2.3 (rice (Nipponbare)), the binding result with NH1 (rice (Nipponbare)), with NH2 (rice (Nipponbare)) and with NH3 (rice (Nipponbare)) was “binds” in each case.
On to “rTGA2.3 (split YFP fusion) (rice (Nipponbare))”, for which the binding result in assay [1] and in assay [2] was “binds” each time.

The record behind these values is paper PMC4094623.
